Source: PMC6104169

What was measured:
STAT1 + STAT2 + IRF9 [1] = assay: EMSA; conditions: 200 fmol probe, 1x LightShift binding buffer, 1 ug poly(dI:dC), 0.05% NP-40, 2.5% glycerol, 5 mM MgCl2, 20 min, extracts in 20 mM Hepes pH 7.9, 100 mM KCl, 0.5 mM EDTA, protein in a lysate after overexpression, label: 5' biotin
STAT1 + STAT2 + IRF9 [2] = assay: EMSA supershift; conditions: IFN-alpha2 60 min, supershifted by anti-STAT1 or anti-IRF9; 200 fmol probe, 1x LightShift binding buffer, 1 ug poly(dI:dC), 0.05% NP-40, 2.5% glycerol, 5 mM MgCl2, 20 min; extracts in 20 mM Hepes pH 7.9, 100 mM KCl, 0.5 mM EDTA; protein in a lysate after overexpression; label: 5' biotin

Sequence: CTCGGGAAAGGGAAACCGAAACTGAAGCC (double strand) [ISG15 ISRE probe]
- binding result (STAT1 + STAT2 + IRF9 [1]; plus nuclear lysate with myc-PLSCR2 CA mutant (4 Cys to Ala in palmitoylation motif), attenuated less than with WT): binds more weakly
- binding result (STAT1 + STAT2 + IRF9 [1]; plus nuclear lysate with myc-PLSCR2 WT (mouse 1-307)): binds more weakly
- binding result (STAT1 + STAT2 + IRF9 [1]; plus nuclear lysates with HA-STAT3 and myc-PLSCR2 WT, suppression augmented): binds more weakly
- binding result (STAT1 + STAT2 + IRF9 [2]): binds

The exact form of at least one protein or probe is not confirmed. Results from cells or extracts need not show a direct contact. For some of these results: The comparison behind a weaker result is the experiment's own reference, which may not be listed here.
